This experiment has as its target HA-tagged guinea pig Mincle (macrophage inducible C-type lectin) (guinea pig). The experiment in a line: co-IP; HEK293T cells transfected with the HA-tagged receptor alone or together with Flag-tagged gpFcRγ; total lysates immunoprecipitated with anti-HA (mAb for gpMincle, pAb for gpMCL) and blotted with anti-Flag pAb and anti-HA.

These are yes or no findings as the source states them, for the method shown. Binding seen in cells or lysates may run through a third protein. Some entries that bind do so weakly or less than the wild type. Where a sequence is shown, tags or fusion partners need not be part of it.

B1: Flag-tagged guinea pig FcRγ (protein, UniProt Q07249 19-86)
chain: LGEPQLCYILDAILFLYGIILTLLYCRLKIQVRKATVASYEKPDGIYTGLSTRNQETYETLKHEKPPQ
In the case of B1, the binding result is given as “binds”.

The record behind these values is article PMC3923057.
